Source: patent EP4408435B1, “C[…], CITRAL AND SODIUM ALGINATE AS A FILM-FORMING SUBSTANCE FOR PROPHYLAXIS OF INFECTIONS” (priority 2021, dated 2023)

Assay: Testing of taste

In the case of `OCC(O)CO` [Glycerol], the Taste is reported as “Special sweet taste”.
